According to the supplement of paper PMC12067093, “Discovery and optimisation of a covalent ligand for TRIM25 and its application to targeted protein ubiquitination” (Chemical Science, 2025):
Some of the results follow.

compound: Cc1cc(ccc1-c1ccccc1)C(=O)N1CCCN(CC1)C(=O)CCl [compound 10]; test: probe-labelled cysteine peptide fold change vs DMSO (competition) (log2 fold change); higher = less target engagement (more negative = stronger competition); details: 50 µM; THP-1; incubation time: 4 h
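Note: competitive profiling in live THP-1 cells: cysteine peptides tagged with an iodoacetamide desthiobiotin (IA-DTB) probe, intensity after compound treatment relative to DMSO-treated cells.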

Point of comparison: “DCAF10_Q5QP82_369_VSGSPCHHSDSNSSEK (UniProt Q5QP82)”, “probe-labelled cysteine peptide fold change” value -0.58. Against it:
- DCAF13_Q9NV06_215_FNPIETFLLGSCASDR (UniProt Q9NV06) — higher, -0.0461
- DCAF12L1_Q5VU92_345_QDQQNIRPLCSR (UniProt Q5VU92) — higher, -0.273
- DARS2_Q6PI48_202_MREYLCNLHGFVDIETPTLFK (UniProt Q6PI48) — higher, 0.144
- CUL4A_Q13619_633_TLQSLACGK (UniProt Q13619) — higher, -0.0564
- DCUN1D1_Q96GG9_131_QEFMDGMTELGCDSIEK (UniProt Q96GG9) — higher, 0.234
- CUTC_Q9NTM9_223_ILEGSGATEFHCSAR (UniProt Q9NTM9) — higher, 0.0638
- CYTH1_Q15438_323_KPNCFELYIPDNK (UniProt Q15438) — higher, 0.17
- DCP2_Q8IU60_73_AVFSHCPFLLPQGEDVEK (UniProt Q8IU60) — higher, -0.158
- CUL3_Q13618_636_ALQSLACGKPTQR (UniProt Q13618) — higher, -0.175
- CTSG_P08311_207_AAFKGDSGGPLLCNNVAHGIVSYGK (UniProt P08311) — lower, -0.817
- DCTN1_Q14203_677_YEHALSQCSVDVYKK (UniProt Q14203) — higher, 0.396
- DCAF5_Q96JK2_368_QPGCTGDLDGR (UniProt Q96JK2) — higher, 0.241
- DBR1_Q9UK59_8+9_VAVAGCCHGELDK (UniProt Q9UK59) — lower, -0.677
- DCAF7_P61962_109_LECLLNNNK (UniProt P61962) — higher, -0.0314
- CYBB_P04839_369_IVGDWTEGLFNACGCDK (UniProt P04839) — higher, 0.149
- DCTN4_Q9UJW0_114_AYYLACGFCR (UniProt Q9UJW0) — higher, 0.0885
- DCPS_Q96C86_307_AHLLAEVIENLECDPR (UniProt Q96C86) — higher, -0.0923
- CTSO_P43234_204_AQNGLCHYFSGSHSGFSIK (UniProt P43234) — higher, 0.0208
- CTSD_P07339_329_AIGAVPLIQGEYMIPCEK (UniProt P07339) — higher, -0.317
- CWF19L1_Q69YN2_87_YFQDADGCELAENITYLGR (UniProt Q69YN2) — higher, 0.0812
- CXorf21_Q9HAI6_117_ETYLVPSSCK (UniProt Q9HAI6) — higher, -0.445
- CUL4A_Q13619_289_VITYLDHSTQKPLIACVEK (UniProt Q13619) — higher, -0.471
- DBR1_Q9UK59_347_VPCNFSVTAACYDPSKPQTQMQLIHR (UniProt Q9UK59) — higher, -0.299
- CUX1_P39880-9_375_CAELQVR (UniProt P39880) — higher, 0.308
- CYB5R4_Q7L1T6_278_CQLISK (UniProt Q7L1T6) — higher, -0.00326
- DCLK2_Q8N568_288_YAQDDFVLDHSECR (UniProt Q8N568) — higher, 0.0213
- DCAF1_Q9Y4B6_1037_NPVATCPPFSLFTPHQCPEPK (UniProt Q9Y4B6) — higher, -0.0472
- DCAF1_Q9Y4B6_69_ADPECMLGHLLR (UniProt Q9Y4B6) — higher, -0.124
- DARS_P14868_203_LQSGICHLFR (UniProt P14868) — higher, 0.138
- DCAF6_Q58WW2_766_HTAEHLMLLEADNHVVNCLQPHPFDPILASSGIDYDIK (UniProt Q58WW2) — higher, 0.185
- CXXC1_Q9P0U4_566_VPADEVCGCPLVR (UniProt Q9P0U4) — higher, 0.0191
- DCTN1_Q14203_791_DLETSCSDIR (UniProt Q14203) — higher, 0.0341
- DAPK1_P53355_484_YGHADVAQLLCSFGSNPNIQDKEEETPLHCAAWHGYYSVAK (UniProt P53355) — higher, -0.026
- DCLRE1C_Q96SD1_359_VVEILKPLCR (UniProt Q96SD1) — higher, -0.31
- CYTH4_Q9UIA0_329_KPFCLELYNPSCR (UniProt Q9UIA0) — higher, -0.449
